# According to patent US20100317827 (published 2010):
# Test: peptide synthesis
# Settings: whole synthesis, HPLC, TFA salt (eptifibatide)
substance,measurement,value
atosiban,crude purity (method not given),73.5%
